This note sets out measurements from publication PMC10714915.

Sequences of proteins named here, by UniProt entry; tags and fusion partners are left off.
UniProt Q96LC9: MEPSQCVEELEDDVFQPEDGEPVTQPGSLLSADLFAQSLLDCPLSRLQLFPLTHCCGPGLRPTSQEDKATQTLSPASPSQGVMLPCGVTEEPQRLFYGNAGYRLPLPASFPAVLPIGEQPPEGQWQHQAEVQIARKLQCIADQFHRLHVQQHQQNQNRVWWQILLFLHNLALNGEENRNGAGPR

These are yes or no findings as the source states them, for the method shown. Binding seen in cells or lysates may run through a third protein. Some entries that bind do so weakly or less than the wild type.

The target in assay [1] is BCL-2 modifying factor (BMF) (human (endogenous in BE(2)-C and SK-N-DZ)) (UniProt Q96LC9). The experiment in a line: condition: only without Dox treatment (ATF5 not knocked down, BMF not induced); co-IP; BMF immunoprecipitated from detached (suspension) BE(2)-C-shATF5 and SK-N-DZ-shATF5 cells without Dox treatment; BCL-XL looked for in the precipitate.
Assay [2] shares this target. Put plainly: co-IP; BMF immunoprecipitated from detached (suspension) BE(2)-C-shATF5 and SK-N-DZ-shATF5 cells with Dox (ATF5 knockdown, BMF induced); BCL-XL detected in the precipitate.

Take BCL-XL (from UniProt Q07817-1 1-233): the binding result in assay [1] is on record as “no binding”; in assay [2], “binds”.
